# Results: PubChem BioAssay (NCATS)
# Several values for one entry are separate records, joined by “and”; a condition that tells them apart may be missing. Equal entries are not always repeated. The shares of active, inactive and inconclusive entries below differ from those in the screen. For some assays here: Potencies beside an inconclusive call are fits to weak or partial responses and may not hold up. Activity calls are given as the source filed them. Unless noted, the call rests on the fitted dose curve; in most records, active means well fitted curve in the direction sought with a large enough effect; inconclusive means small, poorly fitted or top-dose-only effect, or another doubt; inactive means no such curve, though single readings can be large; an effect the other way counts as inactive or inconclusive.
# Columns and labels:
# [1] = Quantitative High-Throughput drug screen in 47 multiple myeloma cell lines against the NCATS MIPE library collection: LP1_DSMZ cell viability assay (AID 1918982); further: potency means the concentration at half of the fitted maximal effect; nearly all actives have a fitted effect of over 35% in size
# Outline: (§1)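 Readout: median RLU from CellTiter-Glo after 5 min at room temperature. Preceding step was 48 h drug treatment of 500 cells/well at 37 °C, 5% CO2, with DMSO-only and media-only control wells.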
# [2] = Quantitative High-Throughput drug screen in 47 multiple myeloma cell lines against the NCATS MIPE library collection: RPMI8226_ATCC cell viability assay (AID 1919871); further: potency means the concentration at half of the fitted maximal effect; nearly all actives have a fitted effect of over 30% in size
# Outline: as §1
# [3] = Quantitative High-Throughput drug screen in 47 multiple myeloma cell lines against the NCATS MIPE library collection: SKMM1_PLB cell viability assay (AID 1919863); details: SKMM1 myeloma viability, CellTiter-Glo ATP, 48 h; viability: active compounds read low; further: potency means the concentration at half of the fitted maximal effect; nearly all actives have a fitted effect of over 35% in size
# Outline: as §1
# [4] = NFAT Signaling Pathway (AID 444; active means well fitted curve in either direction with a large enough effect, not every such curve was filed as active; inconclusive means small, poorly fitted or top-dose-only effect, or another doubt;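 further: carbachol stimulus at about its EC50 of 1 µM final; on the % scale 0 is the no-effect control and ±100 the full control effect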); details: Jurkat NFAT-bla M1, carbachol, beta-lactamase ratio, 5 h
# Outline: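 Jurkat cells carrying an NFAT-driven β-lactamase reporter and co-transfected muscarinic M1 receptor were treated with compound plus carbachol (1 uM final, an EC50 level) for 5 h at 37 °C. CCF4 loading followed for 1 h at RT; 460/530 nm ratio gave %activity.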
# [5] = qHTS of pediatric cancer cell lines to identify multiple opportunities for drug repurposing: Confirmatory screen for LAN-5 cells (AID 1347113); further: nearly all actives have a fitted effect of over 65% in size; further: potency means the concentration at half of the fitted maximal effect
# Outline: (§2)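 Cells (500-1,000/well) in growth media were settled 5 h at 37 degrees C, then given compounds for 48 h. Viability was read as CellTiter-Glo luminescence. Primary runs used MIPE at 11 points (0.78 nM-46 µM) and NPC at 8 points (0.59 nM-46 µM); follow-ups used 11 points.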
# [6] = qHTS of pediatric cancer cell lines to identify multiple opportunities for drug repurposing: Confirmatory screen for DAOY cells (AID 1347114); further: potency means the concentration at half of the fitted maximal effect; nearly all actives have a fitted effect of over 65% in size
# Outline: (§3)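 Viability measured as metabolically active cells via CellTiter-Glo luminescence following 48 hours of compound exposure, 11-point dilutions in confirmatory testing. 500-1,000 cells/well plated 5 hours before dosing; controls were DMSO and 2.3 µM bortezomib.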
# [7] = qHTS of pediatric cancer cell lines to identify multiple opportunities for drug repurposing: Confirmatory screen for Rh18 cells (AID 1347125); further: nearly all actives have a fitted effect of over 55% in size; further: potency means the concentration at half of the fitted maximal effect
# Outline: as §2
# [8] = qHTS of pediatric cancer cell lines to identify multiple opportunities for drug repurposing: Confirmatory screen for NB1643 cells (AID 1347109); further: potency means the concentration at half of the fitted maximal effect; nearly all actives have a fitted effect of over 45% in size
# Outline: as §2
# [9] = qHTS of pediatric cancer cell lines to identify multiple opportunities for drug repurposing: Confirmatory screen for SJ-GBM2 cells (AID 1347116); further: potency means the concentration at half of the fitted maximal effect; nearly all actives have a fitted effect of over 60% in size
# Outline: as §3
# [10] = qHTS of pediatric cancer cell lines to identify multiple opportunities for drug repurposing: Confirmatory screen for U-2 OS cells (AID 1347122); further: potency means the concentration at half of the fitted maximal effect; nearly all actives have a fitted effect of over 65% in size
# Outline: as §2
# [11] = Confirmatory qHTS for small molecule stabilizers of the endoplasmic reticulum resident proteome: Secreted ER Calcium Modulated Protein (SERCaMP) assay (AID 1508628); further: nearly all actives have a fitted effect of over 40% in size; further: potency means the concentration at half of the fitted maximal effect
# Outline: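 GLuc-SERCaMP-expressing SH-SY5Y cells, pretreated 16 h with compound, are challenged with thapsigargin to empty ER calcium stores; after 4 h, coelenterazine is added directly to the medium and luminescence is imaged.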
# [12] = Cell Viability qHTS for small molecule stabilizers of the endoplasmic reticulum resident proteome (AID 1508629); details: cell viability counter-screen, 100 nM thapsigargin for final 4 h;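 further: potency means the concentration at half of the fitted maximal effect; compound exposure about 46 h in total before the viability read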
# CP194 = assay: qHTS profiling for inhibitors of Plasmodium falciparum proliferation (AID 504749); further: potency means the concentration at half of the fitted maximal effect; nearly all actives have a fitted effect of over 60% in size; details: P. falciparum in erythrocytes, SYBR Green DNA, 72 h; series mostly up to 28.7 µM
# Outline: (§4)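 Fluorescence of SYBR Green-bound parasite DNA, read at 485/535 nm, served as the growth measure. Infected erythrocytes were cultured with compound 72 h; artemisinin (0.29 uM) and DMSO wells defined the normalization range.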
# CP203 = assay: as above; details: P. falciparum in erythrocytes, SYBR Green DNA, 72 h; series mostly up to 28.7 µM
# Outline: as §4
# CP286 = assay: as above; details: P. falciparum in erythrocytes, SYBR Green DNA, 72 h; series mostly up to 28.7 µM
# Outline: as §4
# CP305 = assay: as above; details: P. falciparum in erythrocytes, SYBR Green DNA, 72 h; series mostly up to 28.7 µM
# Outline: as §4
# CP315 = assay: as above; details: P. falciparum in erythrocytes, SYBR Green DNA, 72 h; series mostly up to 28.7 µM
# Outline: as §4
# CP325 = assay: as above; details: P. falciparum in erythrocytes, SYBR Green DNA, 72 h; series mostly up to 28.7 µM
# Outline: as §4
# PC26 = assay: as above; details: P. falciparum in erythrocytes, SYBR Green DNA, 72 h; series mostly up to 28.7 µM
# Outline: as §4
# [13] = qHTS of pediatric cancer cell lines to identify multiple opportunities for drug repurposing: Confirmatory screen for SK-N-MC cells (AID 1347111);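 further: cells exposed to compound for 48 h before the readout; nearly all actives have a fitted effect of over 70% in size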; further: potency means the concentration at half of the fitted maximal effect
# Outline: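 Metabolically active cells were quantified by ATP-dependent luminescence (CellTiter-Glo, 15 min at room temperature) following 48 h treatment. Cells had been plated at 500-1,000 per well and settled for 5 h beforehand.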
compound,measurement,setting,value
OCc1ccc(-c2ccc(-c3ccc(CO)s3)o2)s1,Potency,[1],"inconclusive: 37.2 µM [cytotoxic, single point]"
same,Potency,[2],active: 23.5 µM
CC(C)(C)c1nc2c3cc[nH]c(=O)c3c3cc(F)ccc3c2[nH]1,Potency,[1],"inconclusive: 4.69 µM [cytotoxic, partial curve, poor fit]"
same,Potency,[3],active: 0.935 µM
CC(=O)[C@@]1(O)CC[C@H]2[C@@H]3C[C@H](C)C4=CC(=O)CC[C@]4(C)[C@H]3CC[C@@]21C,"activity change, negative = inhibition",[4]; at 17.2 µM (top of the series),inactive: 19.2%
same,Potency,[5],inactive
same,Potency,[6],"inconclusive: 14.7 µM [cytotoxic, partial curve, poor fit]"
same,Potency,[7],inactive
CC(=O)ON=C1C(c2c(O)[nH]c3cc(Br)ccc23)=Nc2ccccc21,Potency,[8],active: 16.5 µM
same,Potency,[5],active: 14.7 µM
same,Potency,[6],"inconclusive: 16.5 µM [cytotoxic, partial curve, poor fit]"
same,Potency,[9],"inconclusive: 18.5 µM [cytotoxic, partial curve, poor fit]"
same,Potency,[10],"inconclusive: 14.7 µM [cytotoxic, partial curve, poor fit]"
same,Potency,[2],active: 16.6 µM
CC(C)N=C(N)/N=C(\N)Nc1ccc(Cl)cc1,Potency,[11],"inconclusive: 15.8 µM [inhibitor, full curve]"
same,Potency,[12],"inconclusive: 22.4 µM [cytotoxic, partial curve]"
same,Potency,CP194,"inconclusive: 2.28 µM [inhibitor, partial curve]"
same,Potency,CP203,"inconclusive: 6.42 µM [inhibitor, single point]"
same,Potency,CP286,"inconclusive: 2.51 µM [inhibitor, partial curve]"
same,Potency,CP305,"inconclusive: 2.56 µM [inhibitor, partial curve]"
same,Potency,CP315,"inconclusive: 5.1 µM [inhibitor, partial curve]"
same,Potency,CP325,"inconclusive: 3.22 µM [inhibitor, partial curve]"
same,Potency,PC26,active: 1.61 µM
CCn1nnc2c(N3CCOCC3)nc(-c3ccc(NC(=O)Nc4ccc(C(=O)N5CCN(C)CC5)cc4)cc3)nc21,Potency,[13],active: 0.657 µM
same,Potency,[6],"inconclusive: 3.69 µM [cytotoxic, partial curve]"
same,Potency,[10],"inconclusive: 4.14 µM [cytotoxic, full curve, poor fit]"
same,Potency,[7],active: 1.04 µM
same,Potency,[3],active: 0.059 µM
Nc1cccc2c(N)cccc12,Potency,[11],inactive
same,Potency,[12],"inconclusive: 0.126 µM [rising, full curve, poor fit]"
N#Cc1c(C2CCNCC2)cc(-c2c(O)cccc2OCC2CC2)nc1N,Potency,[8],"inconclusive: 20.8 µM [cytotoxic, partial curve]"
same,Potency,[13],inactive
same,Potency,[5],"inconclusive: 32.9 µM [cytotoxic, single point]"
same,Potency,[9],"inconclusive: 2.93 µM [cytotoxic, full curve, poor fit]"
same,Potency,[10],"inconclusive: 11.7 µM [cytotoxic, partial curve, poor fit]"
same,Potency,[1],"inconclusive: 18.7 µM [cytotoxic, partial curve]"
C[C@@H]1C[C@H]2[C@@H]3CCC4=CC(=O)C=C[C@]4(C)[C@@]3(Cl)[C@@H](O)C[C@]2(C)[C@@]1(OC(=O)c1ccco1)C(=O)CCl,Potency,[13],active: 0.827 µM
same,Potency,[5],active: 0.233 µM
same,Potency,[9],"inconclusive: 36.9 µM [cytotoxic, partial curve, poor fit]"
same,Potency,[7],active: 20.8 µM
same,Potency,[1],"inconclusive: 29.6 µM [cytotoxic, partial curve, poor fit]"
same,Potency,[3],"inconclusive: 33.2 µM [cytotoxic, single point]"
same,Potency,[2],"inconclusive: 33.2 µM [cytotoxic, partial curve]"
CNCCCN1c2ccccc2CCc2ccccc21,"activity change, negative = inhibition",[4]; at 17.2 µM (top of the series),inconclusive: -65.6% [inhibitor] and inconclusive: -77.1% [inhibitor]
same,"activity change, negative = inhibition",[4]; at 38 µM (top of the series),inconclusive: -57.5% [inhibitor]
CC(CC1c2ccccc2CCc2ccccc21)CN(C)C (configuration not stated),Potency,[11],"inconclusive: 50.1 µM [inhibitor, single point]"
same,Potency,[12],"inconclusive: 15.8 µM [cytotoxic, partial curve, poor fit]"

# Nothing new here: entries from further up.
compound,measurement,setting,value
CC(C)N=C(N)/N=C(\N)Nc1ccc(Cl)cc1,Potency,CP194,"inconclusive: 2.28 µM [inhibitor, partial curve]"
same,Potency,CP203,"inconclusive: 6.42 µM [inhibitor, single point]"
same,Potency,CP286,"inconclusive: 2.51 µM [inhibitor, partial curve]"
same,Potency,CP305,"inconclusive: 2.56 µM [inhibitor, partial curve]"
